In PMC5797217, “UFD-2 is an adaptor-assisted E3 ligase targeting unfolded proteins” (Nature Communications, 2018):
Results are given in words; binding and its absence hold for the method and conditions named. In cells and extracts the contact can be indirect. A yes stands for co-enrichment or nearness to the bait. Other partners may have been found. Values belong to the molecule of their own block, whether it stands above or below them.

The chains behind the UniProt entries cited, without tags or fusion partners.
UniProt P02566: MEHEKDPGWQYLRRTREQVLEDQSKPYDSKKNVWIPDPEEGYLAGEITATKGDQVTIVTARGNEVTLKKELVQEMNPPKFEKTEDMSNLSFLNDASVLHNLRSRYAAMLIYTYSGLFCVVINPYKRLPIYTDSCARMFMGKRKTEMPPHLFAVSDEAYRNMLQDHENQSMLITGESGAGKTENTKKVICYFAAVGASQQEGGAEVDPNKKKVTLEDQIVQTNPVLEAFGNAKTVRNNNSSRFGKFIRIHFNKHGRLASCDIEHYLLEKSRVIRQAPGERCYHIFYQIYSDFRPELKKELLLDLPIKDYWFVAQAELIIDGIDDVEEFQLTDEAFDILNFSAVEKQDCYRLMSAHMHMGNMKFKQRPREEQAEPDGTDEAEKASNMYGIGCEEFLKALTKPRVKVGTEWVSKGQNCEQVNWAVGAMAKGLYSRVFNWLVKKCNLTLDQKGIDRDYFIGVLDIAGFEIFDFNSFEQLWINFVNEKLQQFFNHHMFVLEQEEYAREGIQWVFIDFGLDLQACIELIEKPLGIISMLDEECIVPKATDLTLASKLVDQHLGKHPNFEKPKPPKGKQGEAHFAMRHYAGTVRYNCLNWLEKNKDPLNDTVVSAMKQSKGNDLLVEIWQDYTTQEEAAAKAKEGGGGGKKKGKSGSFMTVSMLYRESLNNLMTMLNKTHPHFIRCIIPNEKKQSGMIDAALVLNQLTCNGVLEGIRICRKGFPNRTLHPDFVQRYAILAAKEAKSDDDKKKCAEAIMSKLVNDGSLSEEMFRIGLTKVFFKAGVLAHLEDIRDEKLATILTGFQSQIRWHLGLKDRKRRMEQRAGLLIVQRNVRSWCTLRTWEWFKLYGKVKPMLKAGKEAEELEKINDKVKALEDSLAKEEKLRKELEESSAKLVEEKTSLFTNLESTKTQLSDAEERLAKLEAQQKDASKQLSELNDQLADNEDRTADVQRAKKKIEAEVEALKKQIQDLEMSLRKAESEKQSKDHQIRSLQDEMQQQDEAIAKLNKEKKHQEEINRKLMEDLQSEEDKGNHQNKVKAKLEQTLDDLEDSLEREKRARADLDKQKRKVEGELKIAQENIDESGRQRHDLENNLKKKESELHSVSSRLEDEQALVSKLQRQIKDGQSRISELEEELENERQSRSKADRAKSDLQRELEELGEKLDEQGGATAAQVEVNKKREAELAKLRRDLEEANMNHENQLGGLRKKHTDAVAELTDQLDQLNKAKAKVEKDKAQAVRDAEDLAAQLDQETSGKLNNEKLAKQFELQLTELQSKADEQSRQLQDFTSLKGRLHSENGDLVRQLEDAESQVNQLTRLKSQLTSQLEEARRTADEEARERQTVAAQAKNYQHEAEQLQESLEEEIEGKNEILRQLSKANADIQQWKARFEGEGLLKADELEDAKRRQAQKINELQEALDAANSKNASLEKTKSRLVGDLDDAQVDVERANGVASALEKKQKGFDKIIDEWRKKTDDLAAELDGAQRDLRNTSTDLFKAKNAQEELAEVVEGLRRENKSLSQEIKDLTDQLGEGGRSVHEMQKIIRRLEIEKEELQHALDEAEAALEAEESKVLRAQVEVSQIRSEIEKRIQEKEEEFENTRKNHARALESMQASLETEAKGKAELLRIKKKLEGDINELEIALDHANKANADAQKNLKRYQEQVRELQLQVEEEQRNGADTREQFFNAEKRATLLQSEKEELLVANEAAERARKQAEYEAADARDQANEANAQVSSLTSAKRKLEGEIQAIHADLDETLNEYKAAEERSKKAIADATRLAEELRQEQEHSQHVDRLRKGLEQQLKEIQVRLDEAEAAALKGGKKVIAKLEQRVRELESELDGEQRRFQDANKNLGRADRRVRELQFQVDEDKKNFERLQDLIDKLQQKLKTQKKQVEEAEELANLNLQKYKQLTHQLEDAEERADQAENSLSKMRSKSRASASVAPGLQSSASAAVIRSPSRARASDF

Key:
[1] = biological target: T1, UFD-2 (C. elegans U-box ubiquitin ligase), endogenous (C. elegans (endogenous in worms)) (UniProt Q09349); assay: affinity purification with mass spectrometry; anti-UFD-2 or anti-UNC-45 antibodies cross-linked to ProteinA-Dynabeads; cleared lysate of heat-shocked L4 worms (2.5 h 34 °C, 2 h recovery 16 °C); 1 h 4 °C; washes with 300 mM KCl, 0.05% NP-40; shotgun nanoLC-MS
T1 sequence: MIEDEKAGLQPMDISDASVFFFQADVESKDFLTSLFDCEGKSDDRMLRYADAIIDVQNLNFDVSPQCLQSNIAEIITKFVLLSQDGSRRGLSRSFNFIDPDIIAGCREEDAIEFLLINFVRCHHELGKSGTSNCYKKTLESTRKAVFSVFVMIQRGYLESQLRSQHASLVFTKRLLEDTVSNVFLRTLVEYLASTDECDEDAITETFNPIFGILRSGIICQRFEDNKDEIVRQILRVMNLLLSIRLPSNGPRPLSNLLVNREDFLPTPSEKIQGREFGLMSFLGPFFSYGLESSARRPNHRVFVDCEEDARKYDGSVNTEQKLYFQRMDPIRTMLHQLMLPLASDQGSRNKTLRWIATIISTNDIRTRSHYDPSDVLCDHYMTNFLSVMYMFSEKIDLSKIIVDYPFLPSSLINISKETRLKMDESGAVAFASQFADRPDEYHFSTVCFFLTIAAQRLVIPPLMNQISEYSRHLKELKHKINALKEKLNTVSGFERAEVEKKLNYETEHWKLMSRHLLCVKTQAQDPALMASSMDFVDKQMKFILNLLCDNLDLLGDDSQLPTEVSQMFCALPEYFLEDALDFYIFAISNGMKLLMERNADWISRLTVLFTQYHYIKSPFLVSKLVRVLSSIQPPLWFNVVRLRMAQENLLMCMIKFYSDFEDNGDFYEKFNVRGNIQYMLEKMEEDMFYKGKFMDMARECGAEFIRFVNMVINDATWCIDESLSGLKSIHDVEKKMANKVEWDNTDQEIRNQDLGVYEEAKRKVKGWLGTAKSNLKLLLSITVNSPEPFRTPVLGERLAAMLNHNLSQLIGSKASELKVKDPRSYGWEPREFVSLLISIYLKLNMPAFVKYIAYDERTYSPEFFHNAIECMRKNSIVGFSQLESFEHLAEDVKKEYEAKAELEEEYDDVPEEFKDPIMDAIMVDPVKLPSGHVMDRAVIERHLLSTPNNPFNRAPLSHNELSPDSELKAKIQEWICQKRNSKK

[2] = biological target: T2, UNC-45 (C. elegans myosin chaperone), endogenous (C. elegans (endogenous in worms)) (UniProt G5EG62); assay: as above
T2 sequence: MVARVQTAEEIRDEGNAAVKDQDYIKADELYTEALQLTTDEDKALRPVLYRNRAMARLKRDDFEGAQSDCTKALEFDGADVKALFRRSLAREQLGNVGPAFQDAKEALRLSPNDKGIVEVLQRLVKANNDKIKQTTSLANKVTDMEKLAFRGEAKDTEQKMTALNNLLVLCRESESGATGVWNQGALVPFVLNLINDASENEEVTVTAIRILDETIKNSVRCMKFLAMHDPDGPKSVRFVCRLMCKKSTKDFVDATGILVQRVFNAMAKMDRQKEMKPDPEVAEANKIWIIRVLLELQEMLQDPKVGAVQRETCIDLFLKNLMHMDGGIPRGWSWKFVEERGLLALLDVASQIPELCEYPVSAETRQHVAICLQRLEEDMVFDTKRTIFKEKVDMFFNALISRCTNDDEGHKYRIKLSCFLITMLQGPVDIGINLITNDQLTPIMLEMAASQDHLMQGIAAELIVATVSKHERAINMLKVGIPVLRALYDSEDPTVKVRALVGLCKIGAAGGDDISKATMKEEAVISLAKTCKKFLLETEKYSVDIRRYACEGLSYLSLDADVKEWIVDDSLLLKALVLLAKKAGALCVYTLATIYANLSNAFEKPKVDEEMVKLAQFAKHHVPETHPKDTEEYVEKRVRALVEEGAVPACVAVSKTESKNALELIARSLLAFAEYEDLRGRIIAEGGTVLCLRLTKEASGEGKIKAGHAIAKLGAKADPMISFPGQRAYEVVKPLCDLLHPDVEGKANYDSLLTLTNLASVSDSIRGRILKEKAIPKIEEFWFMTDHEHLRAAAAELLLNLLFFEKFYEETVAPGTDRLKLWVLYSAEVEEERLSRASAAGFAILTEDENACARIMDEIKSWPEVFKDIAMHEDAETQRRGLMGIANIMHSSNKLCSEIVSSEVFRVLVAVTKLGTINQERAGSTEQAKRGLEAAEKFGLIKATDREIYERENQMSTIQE

[3] = biological target: T1, UFD-2 (C. elegans U-box ubiquitin ligase), endogenous (C. elegans (endogenous in worms)); assay: affinity purification with mass spectrometry; two additional sets of anti-UNC-45 and anti-UFD-2 IPs from the same worm lysate; parallel reaction monitoring (PRM) of selected UNC-45 and UFD-2 peptides; no peptides in control IPs
[4] = biological target: T1, UFD-2 (C. elegans U-box ubiquitin ligase), endogenous (C. elegans (endogenous in worms)); assay: affinity purification with mass spectrometry; anti-UFD-2 or anti-UNC-45 antibodies cross-linked to ProteinA-Dynabeads; cleared lysate of heat-shocked L4 worms (2.5 h 34 °C, 2 h recovery 16 °C); 1 h 4 °C; washes with 300 mM KCl, 0.05% NP-40; shotgun nanoLC-MS; remark: listed apart in the source

binding [1]: binds
Molecule: MHC-B (myosin heavy chain B, UNC-54), endogenous (from UniProt P02566 1-1963)

binding [2]: binds weakly
B1: UFD-2 (C. elegans U-box ubiquitin ligase), endogenous (enzyme, UniProt Q09349 1-984)
chain: T1 sequence

binding [3]: binds weakly
binding [4]: binds weakly
B2: UNC-45 wild type, crystallised (crystal form UNC-45_(717)) (natural protein, C. elegans, UniProt G5EG62 1-961, looked up)
chain: T2 sequence
notes: UNC-45, C. elegans, wild-type full-length protein used for crystallisation
